The values that follow come from PubChem BioAssay AID1347431 (National Center for Advancing Translational Sciences (NCATS), 2020).

The campaign covered roughly 1,200 compounds. Fewer than 10 were called active. Calls follow the shape of the dose curve; as a rule, active = well fitted curve in the direction sought with a large enough effect; inconclusive = small, poorly fitted or top-dose-only effect, or another doubt; inactive = no such curve, though single readings can be large or run the other way. Some of the results follow.

This experiment in a line: Confirmatory qHTS assay for inhibitors of Activation Induced Cytidine Deaminase (AID): UDG signals. Also: 0% is about no effect. The following applies: UDG coupled enzyme activity counter-screen; at 115 µM (top of the series) unless noted. Summed up: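 UDG readout, a counterscreen: AID (1 uM, 4/3x) plus UDG (2 U/mL, 4/3x) preincubated 10 min with compound (7.32 nM - 114 uM final), then 4 h with DJC20/DJC23 substrates at room temperature; NaOH added, fluorescence read at 560/665 nm.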
In general terms: qHTS replaces the single test concentration by a dilution series.
Take `CCN(CC)CCCC(C)Nc1c2ccc(Cl)cc2nc2ccc(OC)cc12` (stereo not given): the activity change, negative = inhibition was inactive: -6.08%.

On to `CCc1cccc(-n2c(C)nc3c(cnn3-c3ccc(Cl)cc3)c2=O)c1`, for which the activity change, negative = inhibition is inactive: 2.34%.

As for `Cc1ccc(-c2cc3ncc(C(=O)c4cc([N+](=O)[O-])ccc4O)cn3n2)cc1`, the activity change, negative = inhibition was inactive: -1.25%.

For `CCCN(CCC)C(=O)Cn1c(=O)n(Cc2ccc(C(=O)NCCc3ccc(OC)c(OC)c3)cc2)c(=O)c2ccccc21`, the activity change, negative = inhibition was inactive: 2.87%.

For `CC1CCCCN1C(=O)c1ccc2c(c1)N(Cc1ccc(Cl)cc1)C(=O)c1ccccc1S2=O` (stereo not given), the activity change, negative = inhibition was inactive: 0.84%.

In the case of `COc1cc2c(=O)c(C(=O)c3ccc(C)c(C)c3)cn(Cc3ccc(F)cc3)c2cc1OC`, the activity change, negative = inhibition was inactive: -7.32%.

Take `CCc1nn2c(-c3ccccc3OC)ccnc2c1-c1ccccc1`: the activity change, negative = inhibition is inactive: -8.21%.

Regarding `Nc1c(S(=O)(=O)O)cc(Nc2ccc(Nc3nc(Cl)nc(Nc4ccc(S(=O)(=O)O)cc4)n3)c(S(=O)(=O)O)c2)c2c1C(=O)c1ccccc1C2=O`, the activity change, negative = inhibition was inactive: -6.96%.

Consider `Cc1ccc(C(=O)c2cn(Cc3ccccc3)c3nc(C)ccc3c2=O)cc1`, for which the activity change, negative = inhibition is inactive: -10.6%.

In the case of `CC1CCCCN1C(=O)CSc1nc2ccccc2nc1Cc1ccccc1` (stereo not given), the activity change, negative = inhibition was inactive: -1.92%.

Turning to `CCCN(CCC)CCCNC(=O)c1cc2c(-c3ccc(Cl)cc3)nn(C)c2s1`, the activity change, negative = inhibition is inactive: -16.3%.

In the case of `CC(CNC(=O)c1sc2ncccc2c1-n1cccc1)c1ccccc1` (stereo not given), the activity change, negative = inhibition is inactive: -6.13%.

In the case of `CCOc1ccc(N(CC)S(=O)(=O)N2CCCC(C(=O)NCCc3ccccc3OC)C2)cc1` (stereo not given), the activity change, negative = inhibition is inactive: -6.4%.

Turning to `Cc1cccc(N2CCN(C(=O)c3ccc4c(c3)c(C)c(C)n4C)CC2C)c1` (stereo not given), the activity change, negative = inhibition is inactive: -4.59%.

In the case of `COc1ccccc1CN1CCC(CNC(=O)c2cnn(-c3ccc(C)c(C)c3)c2C2CCN(C(=O)OC(C)(C)C)CC2)CC1`, the activity change, negative = inhibition is inactive: 9.38%.

Turning to `COc1ccc(-c2nc3c(c(SCC(=O)N4CCCCC4)n2)Cc2c(CO)cnc(C)c2O3)cc1`, the activity change, negative = inhibition is inactive: -2.63%.

With `CCc1ccc2oc(-c3cc(NC(=O)c4cc([N+](=O)[O-])ccc4N4CCOCC4)ccc3Cl)nc2c1`, the activity change, negative = inhibition was inactive: -8.12%.

Take `O=C(NCc1cccs1)c1ccc(Cn2c(SCc3ccc(F)cc3)nc3cccnc32)cc1`: the activity change, negative = inhibition is inactive: -12.9%.

On to `Cc1ccc(C)c(N2CCN(C(=O)c3cc(S(=O)(=O)N4CCCCCC4)cn3C)CC2)c1`, for which the activity change, negative = inhibition is inactive: -10.3%.

As to `CCOC(=O)c1cc(-c2ccc(OC)cc2)n(CCC(=O)Nc2nc3ccc(OCC)cc3s2)c1C`, the activity change, negative = inhibition was inactive: -0.904%.

As for `CCCn1cc(S(=O)(=O)c2ccccc2)c(=O)c2cc(F)c(N3CCCCC3)cc21`, the activity change, negative = inhibition was inactive: 1.12%.

For `CCC(C)n1c(=N)c(C(=O)NCc2ccccc2)cc2c(=O)n3cc(C)ccc3nc21` (stereo not given), the activity change, negative = inhibition is inactive: -13%.

Turning to `Cc1ccc(Cc2c(C)nc3nc(SCC(=O)NC(C)c4ccccc4)nn3c2C)cc1` (stereo not given), the activity change, negative = inhibition was inactive: -5.73%.

For `COc1ccccc1NC(=O)CSc1nnc2c3ccccc3n(C(C)C)c2n1`, the activity change, negative = inhibition was inactive: -6.75%.

Take `COc1ccccc1Nc1nn2c(=O)c3ccc(C(=O)N4CCC(C)CC4)cc3nc2s1`: the activity change, negative = inhibition was inactive: -0.185%.

Consider `CCN(C(=O)CCc1nc(-c2ccc(C)cc2)no1)c1cc(C)ccc1C`, for which the activity change, negative = inhibition was inactive: -8.41%.

Regarding `CCCCOc1ccc(C2=NC(c3ccncc3)=Nc3ccc(Br)cc3N2)cc1`, the activity change, negative = inhibition was inactive: -4.6%.

`CCn1cc(S(=O)(=O)c2ccc(OC)cc2)c(=O)c2cc(F)c(N3CCC(C)CC3)cc21`: the activity change, negative = inhibition is inactive: -7.33%.

Turning to `Cc1ccc(CN(Cc2ccco2)C(=O)COc2c(C)cc(C)cc2C)cc1`, the activity change, negative = inhibition was inactive: -3.72%.

In the case of `COc1cc2c(=O)c(C(=O)c3ccc(C)c(C)c3)cn(Cc3ccccc3)c2cc1OC`, the activity change, negative = inhibition is inactive: 3.4%.

In the case of `N#C/C(=C\c1ccc(-c2ccccc2C(=O)O)o1)c1nc2ccccc2[nH]1`, the activity change, negative = inhibition is inactive: -2.29%.

As for `Cc1cc(-c2ccc(C)c(S(=O)(=O)N3CCCC(C)C3)c2)on1` (stereo not given), the activity change, negative = inhibition is inactive: -7.21%.

With `Cc1ccccc1CN1CCC(CNc2ncnc3onc(-c4ccc(Cl)cc4)c23)CC1`, the activity change, negative = inhibition was inactive: 2.19%.

With `COc1cc(NC(=O)Cn2cc(S(=O)(=O)N3CCC(C)CC3)c3ccccc3c2=O)cc(OC)c1OC`, the activity change, negative = inhibition is inactive: -13.2%.

With `Cc1ccc(C(=O)c2cn(CC(=O)Nc3ccc4c(c3)OCCO4)c3nc(C)ccc3c2=O)cc1`, the activity change, negative = inhibition is inactive: -1.14%.

For `CCc1ccc(OCC2c3cc(OC)c(OC)cc3CCN2C(=O)Cc2ccc(OC)c(OC)c2)cc1` (stereo not given), the activity change, negative = inhibition is inactive: -6.81%.

In the case of `Cc1cccc(N2CCN(C(=O)c3c4c(nc5ccccc35)C(=O)N(C3CCCCC3)C4)CC2)c1C`, the activity change, negative = inhibition is inactive: -10.3%.

Turning to `CN(C)S(=O)(=O)N(CC(=O)NCCSc1ccc(Cl)cc1)c1ccccc1`, the activity change, negative = inhibition was inactive: -6.14%.

Turning to `Cn1c2ccccc2c2c(C(=O)N3CCN(c4cccc(C(F)(F)F)c4)CC3)cn(C3CCCCC3)c(=O)c21`, the activity change, negative = inhibition is inactive: -7.55%.

For the molecule `Cc1cccc(Cn2nnc3c(=O)[nH]c(C4CCCN(C(=O)c5ccc(C(C)(C)C)cc5)C4)nc32)c1` (stereo not given), the activity change, negative = inhibition was inactive: -5.24%.

As for `COc1ccccc1C(=O)NCCc1csc(-c2ccc(C(F)(F)F)cc2)n1`, the activity change, negative = inhibition was inactive: -1.07%.

As to `CCCCN(C)C(=O)c1ccc2c(c1)N(Cc1cccc(Cl)c1)C(=O)c1ccccc1S2=O` (stereo not given), the activity change, negative = inhibition was inactive: -11%.

As to `Cc1cccc(NC(=O)CCn2nc(-c3ccccc3)c3ccccc3c2=O)c1`, the activity change, negative = inhibition was inactive: -11%.

`CCOC(=O)c1cc(-c2ccc(C)cc2)n(CCC(=O)Nc2ccc(OC)c(OC)c2)c1C`: the activity change, negative = inhibition is inactive: 1.84%.

For the molecule `O=C(CCn1c(=O)c2cccn2c2cccnc21)N1CCN(c2cccc(Cl)c2)CC1`, the activity change, negative = inhibition is inactive: -5.29%.

Regarding `CCc1nn2c(=O)cc(COC(=O)C(c3ccccc3)c3ccccc3)nc2s1`, the activity change, negative = inhibition was inactive: 6.6%.

Regarding `COc1ccccc1CNC(=O)c1cnn2c(C)c(Cc3ccc(F)cc3)c(C)nc12`, the activity change, negative = inhibition is inactive: -5.21%.

Consider `Fc1ccc(CNc2nc(-c3ccccc3)cc(C(F)(F)F)n2)cc1`, for which the activity change, negative = inhibition is inactive: -4.61%.

On to `Cc1ccc(Cl)cc1N1CCN(C(=O)c2ccc(C)c(-n3c(C)nc4cccnc43)c2)CC1`, for which the activity change, negative = inhibition was inactive: -4.12%.

For `CCc1nc2ccc(C(=O)N3CCN(c4ccc(Cl)cc4)CC3)cc2nc1CC`, the activity change, negative = inhibition is inactive: -11.5%.
